PubChem BioAssay AID504808 – Drosophila RNAi Screening Center | 2011
The deposit covers about 21,000 reagents; this is a random part of those with a known target gene and a result. In the full data, 18 (0.084%) are marked active. 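Raw counts without plate normalisation, one of two replicates; the ratio scores behind the calls were not deposited.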 The numbers tell different reagents against one gene apart. A plus sign joins genes that one reagent is predicted to hit. The record does not give: the amount of reagent, the time to read-out.

- Aim: 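Chromatin factors that keep E2F targets switched off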 (primary screen)
- Cell system: Drosophila S2 cells
- Reagent: long dsRNA against Drosophila genes
- Detection: 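Dual luciferase plate measurements; E2F-specific signal taken as firefly over Renilla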
- Scale: E2F firefly: higher = more E2F reporter activity; Renilla normaliser: higher = more normaliser reporter signal
- Hit rule: 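Called active if the normalised E2F reporter went up by over 50%; the cutoff is arbitrary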

no.	target	reagent	E2F firefly, rep 1	Renilla normaliser, rep 1	activity call
1	dop (drop out)	1	57948	3549	inactive
2	RhoGAP19D (Rho GTPase activating protein at 19D)	1	1.58e5	5750	inactive
3	RhoGAP19D (Rho GTPase activating protein at 19D)	2	1.15e5	6772	inactive
4	CG4733	1	1.43e5	7172	inactive
5	dpr7 (defective proboscis extension response 7)	1	85911	2939	inactive
6	Sgf11 (SAGA associated factor 11kDa)	1	1.79e5	8599	inactive
7	FoxL1 (Forkhead box L1)	1	1.04e5	4261	inactive
8	CG42518 + MED9	1	66998	3106	inactive
9	CG5937	1	1.03e5	4342	inactive
10	DJ-1alpha	1	92181	4476	inactive
11	CG5024	1	1.02e5	5473	inactive
12	Ror	1	1.49e5	4564	inactive
13	crim (crimpled)	1	63593	2850	inactive
14	CG9581	1	1.52e5	5523	inactive
15	amon (amontillado)	1	92490	2482	inactive
16	amon (amontillado)	2	1.22e5	5844	inactive
17	l(2)efl (lethal (2) essential for life)	1	78917	3207	inactive
18	CG34124	1	1.26e5	5726	inactive
19	unc-104 (uncoordinated-104)	1	1.52e5	5232	inactive
20	CG5402	1	1.04e5	6273	inactive
21	CG7218	1	75547	3060	inactive
22	Arl6 (ADP ribosylation factor-like 6)	1	1.57e5	5259	inactive
23	CG1307	1	68345	3607	inactive
24	rtet (tetracycline resistance)	1	73960	3603	inactive
25	Eogt (EGF-domain O-GlcNAc transferase)	1	86560	3901	inactive
26	pen-2 (presenilin enhancer)	1	1.68e5	6054	inactive
27	BtbVII (BTB-protein-VII)	1	82816	3177	inactive
28	BtbVII (BTB-protein-VII)	2	75380	3168	inactive
29	CG31926	1	1.69e5	5484	inactive
30	Hmu (Hemomucin)	1	1.18e5	7075	inactive
31	CG34026	1	93375	2962	inactive
32	CG10366	1	82782	3430	inactive
33	CG33223	1	75168	2579	inactive
34	CG10317	1	1.15e5	6885	inactive
35	CG15120	1	1.33e5	4354	inactive
36	Ir94g (Ionotropic receptor 94g)	1	1.05e5	5770	inactive
37	Jwa	1	86806	3435	inactive
38	CG31445	1	2033	832	inactive
39	CG13717 (retired record)	1	55569	3387	inactive
40	CG13717 (retired record)	2	96922	3950	inactive
41	CG13717 (retired record)	3	87144	3641	inactive
42	s-cup (stanley-cup)	1	85788	4295	inactive
43	s-cup (stanley-cup)	2	99384	3980	inactive
44	CR9337 (pseudo)	1	80302	3294	inactive
45	Grik	1	70661	3195	inactive
46	Grik	2	1.39e5	6614	inactive
47	CG15710	1	1.38e5	4926	inactive

A stretch from the list above:
no.	target	reagent	E2F firefly, rep 1	Renilla normaliser, rep 1	activity call
16	amon (amontillado)	2	1.22e5	5844	inactive
17	l(2)efl (lethal (2) essential for life)	1	78917	3207	inactive
18	CG34124	1	1.26e5	5726	inactive
19	unc-104 (uncoordinated-104)	1	1.52e5	5232	inactive
20	CG5402	1	1.04e5	6273	inactive
21	CG7218	1	75547	3060	inactive
22	Arl6 (ADP ribosylation factor-like 6)	1	1.57e5	5259	inactive
23	CG1307	1	68345	3607	inactive
24	rtet (tetracycline resistance)	1	73960	3603	inactive
25	Eogt (EGF-domain O-GlcNAc transferase)	1	86560	3901	inactive
26	pen-2 (presenilin enhancer)	1	1.68e5	6054	inactive

The list goes on.
no.	target	reagent	E2F firefly, rep 1	Renilla normaliser, rep 1	activity call
48	CG34038	1	1.38e5	5678	inactive
49	CG13540	1	1.11e5	4091	inactive
50	CG10462	1	84742	257	inactive
51	CG31921	1	1.32e5	5432	inactive
52	CG31601	1	1.10e5	4646	inactive
53	Scgalpha (Sarcoglycan alpha)	1	1.56e5	4884	inactive
54	Trf4-2 (Topoisomerase related function 4-2)	1	1.14e5	5904	inactive
55	brv1 (brivido-1)	1	1.46e5	6404	inactive
56	CG10560	1	98922	5382	inactive
57	CG6959	1	1.32e5	5455	inactive
58	synr (sayonara)	1	1.69e5	5839	inactive
59	Sod2 (Superoxide dismutase 2 (Mn))	1	63890	3193	inactive
60	Taf11 (TBP-associated factor 11)	1	1.13e5	4879	inactive
61	CG14323	1	99321	5427	inactive
62	RpL34b (Ribosomal protein L34b)	1	1.37e5	7157	inactive
63	cag	1	1.35e5	4349	inactive
64	CycD (Cyclin D)	1	32901	5640	inactive
65	mei-W68 (meiotic W68)	1	1.61e5	5706	inactive
66	CG17109	1	1.06e5	6150	inactive
67	Mur89F (Mucin related 89F)	1	1.05e5	6224	inactive
68	Ip259 (Intronic Protein 259)	1	68707	3770	inactive
69	mxt (mextli)	1	96593	3814	inactive
70	CG15155	1	1.09e5	4695	inactive
71	CG4393	1	91087	5029	inactive
72	CG42269	1	90415	3556	inactive
73	CG42269	2	1.05e5	3846	inactive
74	CG3552	1	1.30e5	6904	inactive
75	CG30412	1	83154	3462	inactive
76	CG1552	1	1.17e5	5803	inactive
77	HLH54F	1	1.49e5	5660	inactive
78	CG42818 + Ca-Ma2d	1	1.07e5	4146	inactive
79	asl (asterless)	1	62689	2999	inactive
80	AlaRS-m (Alanyl-tRNA synthetase, mitochondrial)	1	80124	3397	inactive
81	ND-23 (NADH dehydrogenase (ubiquinone) 23 kDa subunit)	1	70125	3116	inactive
82	arr (arrow)	1	1.02e5	4212	inactive
83	CG10479	1	87159	4508	inactive
84	Edg84A (Ecdysone-dependent gene 84A)	1	1.50e5	7313	inactive
